No constants are given. Whether binding was seen depends on the method and setting. Binding seen in cells or lysates may run through a third protein. Some binding calls cover weakened binding; strength is not graded here.
Biological target: endogenous Akt1 of SW620 cells (human (endogenous in SW620)) (UniProt P31749)
Test: pull-down; competition: synthetic FAK-derived peptide (160 μM by the legend, 160mM by the methods) added to GST-FAK-NT1 or GST-FAK beads and cell lysate, two hours at 4°C before overnight Akt1 incubation; loss of Akt1 pull-down read by blot; only the binder purified

Sequences of proteins named here, by UniProt entry; tags and fusion partners are left off.
UniProt P31749: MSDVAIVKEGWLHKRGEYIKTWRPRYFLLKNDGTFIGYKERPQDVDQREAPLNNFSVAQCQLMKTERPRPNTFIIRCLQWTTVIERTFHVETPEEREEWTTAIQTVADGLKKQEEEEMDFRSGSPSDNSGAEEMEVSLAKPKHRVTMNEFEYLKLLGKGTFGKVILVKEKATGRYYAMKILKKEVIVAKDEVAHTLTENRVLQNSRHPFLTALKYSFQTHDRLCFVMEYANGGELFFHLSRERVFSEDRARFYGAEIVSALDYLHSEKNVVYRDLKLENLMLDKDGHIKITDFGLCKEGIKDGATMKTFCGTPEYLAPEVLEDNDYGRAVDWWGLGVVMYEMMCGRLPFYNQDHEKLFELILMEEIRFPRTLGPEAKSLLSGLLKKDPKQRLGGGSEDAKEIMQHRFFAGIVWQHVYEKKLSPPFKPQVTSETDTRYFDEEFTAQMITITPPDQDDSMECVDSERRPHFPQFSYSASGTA

Row | binding | Binder
1 | binds | LAHPSEE [LAHPSEE peptide (mutant FAK short helix)]
2 | binds | EVHWLHVDMGVSSVREKYELAHPPEEWKYELRI (peptide, UniProt Q05397 94-126) [Pep-FAK-NT1-2-2]
3 | binds | AAHCGEE [AAHCGEE peptide (mutant FAK short helix)]
4 | binds | LAHPPEE [LAHPPEE peptide (wild-type FAK short helix)]

— PMC5716713
